PubChem BioAssay AID1159578 | Peter MacCallum Cancer Centre, 2015

- Purpose: 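Knock-downs that alter how fast lymphatic endothelial cells migrate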 (primary screen)
- System: human lymphatic endothelial cells
- Knock-down reagent: siRNA pool against human genes, 40 nM
- Duration: 48 h after transfection
- Measurement: 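Cells stained with dye and imaged after a scratch; covered wound area and nuclei counted, duplicates averaged, migration set against mock wells and turned into a robust z-score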
- Reading the numbers: migration robust z-score: higher = faster migration into the scratch; nuclei per well: higher = more cells in the well
- Call rule: 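Migration changed when robust z exceeds 2 or falls below -2 and mean nuclei number is at least 3300; otherwise not called changed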
- Calls: active = migration changed; inactive = no migration change, or too few cells
This is an unselected part of about 18,000 reagents tested. Over the whole deposit, about 1,030 (5.7%) were called active. 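Inactive calls also include pools with fewer than 3300 nuclei, whose migration was not assessed.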 Raw values vary from plate to plate and are shown uncorrected. Unmarked entries are inactive. The numbers tell different reagents against one gene apart. Not all columns of the deposit are shown. No sequences are given here.

Against RIMKLB (GeneID 57494), the values are migration robust z-score -0.27; migration class with cell-count check migration z between -2 and 2; enough cells; nuclei per well, duplicate mean 6368.
For NPPA (GeneID 4878) the deposit lists migration robust z-score 0.94; migration class with cell-count check migration z between -2 and 2; enough cells; nuclei per well, duplicate mean 5054.
Against DACT1 (GeneID 51339), the values are migration robust z-score 0.46; migration class with cell-count check migration z between -2 and 2; enough cells; nuclei per well, duplicate mean 5492.
PER3 (GeneID 8863) showed migration robust z-score 0.72; migration class with cell-count check migration z between -2 and 2; enough cells; nuclei per well, duplicate mean 5884.
Against LMAN2 (GeneID 10960), the values are migration robust z-score -1.97; migration class with cell-count check migration z between -2 and 2; enough cells; nuclei per well, duplicate mean 6148.
Silencing of CDH2 (GeneID 1000) resulted in: migration robust z-score -0.78; migration class with cell-count check migration z between -2 and 2; enough cells; nuclei per well, duplicate mean 5806.
Knock-down of MFSD11 (GeneID 79157) gave: migration robust z-score -1.31; migration class with cell-count check migration z between -2 and 2; enough cells; nuclei per well, duplicate mean 5752.
TSGA10 (GeneID 80705) gave migration robust z-score -0.62; migration class with cell-count check migration z between -2 and 2; enough cells; nuclei per well, duplicate mean 5202.
With knock-down of ADAMTS18 (GeneID 170692), the record shows migration robust z-score 1.32; migration class with cell-count check migration z between -2 and 2; enough cells; nuclei per well, duplicate mean 5270.
Silencing of RTN4R (GeneID 65078) gave: migration robust z-score -0.88; migration class with cell-count check migration z between -2 and 2; enough cells; nuclei per well, duplicate mean 4626.
Depletion of FDXR (GeneID 2232) gave: migration robust z-score 0.23; migration class with cell-count check migration z between -2 and 2; enough cells; nuclei per well, duplicate mean 5418.
For VANGL2 (GeneID 57216), the values are migration robust z-score -0.74; migration class with cell-count check migration z between -2 and 2; enough cells; nuclei per well, duplicate mean 5186.
Depletion of OSER1 (GeneID 51526) gave: migration robust z-score 0.17; migration class with cell-count check migration z between -2 and 2; enough cells; nuclei per well, duplicate mean 7336.
With knock-down of TCEAL3 (GeneID 85012), the screen gave migration robust z-score 1.34; migration class with cell-count check migration z between -2 and 2; enough cells; nuclei per well, duplicate mean 6773.
After knock-down of PRR3 (GeneID 80742), the record shows migration robust z-score 1.45; migration class with cell-count check migration z between -2 and 2; enough cells; nuclei per well, duplicate mean 5980.
Against MAGEE1 (GeneID 57692), the values are migration robust z-score 0.51; migration class with cell-count check migration z between -2 and 2; enough cells; nuclei per well, duplicate mean 5836.
Against PALM2AKAP2 (GeneID 445815) #1, the values are migration robust z-score 2; migration class with cell-count check migration z between -2 and 2; enough cells; nuclei per well, duplicate mean 6358.
With knock-down of PALM2AKAP2 (GeneID 445815) #2 the results were migration robust z-score 2.71 (active); migration class with cell-count check migration z above 2; enough cells; nuclei per well, duplicate mean 5859.
Depletion of PALM2AKAP2 (GeneID 445815) #3 resulted in: migration robust z-score 0.66; migration class with cell-count check migration z between -2 and 2; enough cells; nuclei per well, duplicate mean 5678.
After knock-down of GYPC (GeneID 2995) the results were migration robust z-score 1.25; migration class with cell-count check migration z between -2 and 2; enough cells; nuclei per well, duplicate mean 6046.
Knock-down of CASP5 (GeneID 838) came out at: migration robust z-score 1.27; migration class with cell-count check migration z between -2 and 2; enough cells; nuclei per well, duplicate mean 4932.

Called active (from the list above):
PALM2AKAP2 (GeneID 445815) #2: migration robust z-score = 2.71 (active); migration class with cell-count check = migration z above 2; enough cells; nuclei per well, duplicate mean = 5859
